Experimental data published in PubChem BioAssay AID651768 (National Center for Advancing Translational Sciences (NCATS), 2012).
The campaign covered roughly 360,000 compounds. About 1,700 (0.47%) were called active. The shares of active, inactive and inconclusive entries below differ from those in the screen. Calls follow the shape of the dose curve; as a rule, active = well fitted inhibition curve with a large enough effect; inconclusive = small, poorly fitted or top-dose-only effect; inactive = no such curve, though single readings can be large or run the other way. Potencies beside an inconclusive call are fits to weak or partial responses and may not hold up.

By UniProt entry, the sequences of proteins in these tests, tags left out.
UniProt Q14191, whole entry, looked up: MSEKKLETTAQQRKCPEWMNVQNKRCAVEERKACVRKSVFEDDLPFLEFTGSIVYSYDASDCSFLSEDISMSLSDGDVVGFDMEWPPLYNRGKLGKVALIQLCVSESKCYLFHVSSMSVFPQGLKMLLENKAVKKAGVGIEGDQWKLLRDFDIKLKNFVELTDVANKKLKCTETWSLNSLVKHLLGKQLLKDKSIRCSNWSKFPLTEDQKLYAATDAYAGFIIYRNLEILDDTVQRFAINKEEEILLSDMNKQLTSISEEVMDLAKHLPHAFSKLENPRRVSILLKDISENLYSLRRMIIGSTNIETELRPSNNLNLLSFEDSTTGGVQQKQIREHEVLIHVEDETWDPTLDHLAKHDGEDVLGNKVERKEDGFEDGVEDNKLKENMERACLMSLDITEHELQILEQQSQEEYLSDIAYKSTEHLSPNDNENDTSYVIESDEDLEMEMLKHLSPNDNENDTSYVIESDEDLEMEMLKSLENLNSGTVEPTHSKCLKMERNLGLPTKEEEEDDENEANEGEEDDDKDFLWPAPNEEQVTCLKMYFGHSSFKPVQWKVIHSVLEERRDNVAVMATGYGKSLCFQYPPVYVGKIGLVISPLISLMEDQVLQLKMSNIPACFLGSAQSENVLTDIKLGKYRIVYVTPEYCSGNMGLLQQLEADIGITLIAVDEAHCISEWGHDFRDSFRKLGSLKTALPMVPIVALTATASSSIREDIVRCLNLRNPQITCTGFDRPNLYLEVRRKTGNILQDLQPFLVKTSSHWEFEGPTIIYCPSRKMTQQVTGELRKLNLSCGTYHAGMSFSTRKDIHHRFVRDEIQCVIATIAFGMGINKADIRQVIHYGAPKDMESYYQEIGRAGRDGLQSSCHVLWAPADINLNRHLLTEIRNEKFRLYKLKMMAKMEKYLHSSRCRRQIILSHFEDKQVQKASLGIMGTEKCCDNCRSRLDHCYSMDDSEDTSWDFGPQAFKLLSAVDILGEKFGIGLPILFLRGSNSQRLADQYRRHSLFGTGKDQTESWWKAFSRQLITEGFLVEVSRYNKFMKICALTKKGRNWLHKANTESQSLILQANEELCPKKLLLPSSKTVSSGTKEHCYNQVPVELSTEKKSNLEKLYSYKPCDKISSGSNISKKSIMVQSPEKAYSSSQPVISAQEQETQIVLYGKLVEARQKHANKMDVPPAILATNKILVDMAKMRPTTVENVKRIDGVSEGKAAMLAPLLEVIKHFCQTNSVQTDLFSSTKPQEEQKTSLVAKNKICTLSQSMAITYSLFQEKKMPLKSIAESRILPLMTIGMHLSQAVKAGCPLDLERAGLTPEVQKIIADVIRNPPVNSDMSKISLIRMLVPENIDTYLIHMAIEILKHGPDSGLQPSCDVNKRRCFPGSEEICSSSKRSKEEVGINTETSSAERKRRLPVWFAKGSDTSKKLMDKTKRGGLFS

These molecules were tested against Bifunctional 3'-5' exonuclease/ATP-dependent helicase WRN (Homo sapiens) (UniProt Q14191) (assay: qHTS for Inhibitors of WRN Helicase). Conditions: WRN helicase unwinding, fluorescent forked duplex, kinetic; activity change, negative = inhibition: at 114 µM (top of the series) unless noted.
Method in brief: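 Kinetic fluorescence helicase assay: unwinding of a quenched forked DNA duplex (100 nM final) with 2 mM ATP final raises red fluorescence (525/598 nm). Compounds sat 15 min at room temperature with 20 nM WRN beforehand.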
% is scaled to controls: 0 for no effect and ±100 for the full control effect; potency is read from the fitted curve at half-maximal effect.
Also: nearly all actives have a fitted effect of over 55% in size.

| Structure (SMILES) | Potency | activity change, negative = inhibition |
| --- | --- | --- |
| O=C(N[C@@H](Cc1ccccc1)C(=O)NC1CCCCC1)c1ccco1 | inconclusive: 25.1 µM [inhibitor, single point] | – |
| O=C(Cc1cccs1)Nc1ccccn1 | inconclusive: 44.7 µM [inhibitor, full curve, poor fit] | – |
| CCOC(=O)C1=C(C)N=c2s/c(=C\c3ccc(OCC(=O)O)cc3)c(=O)n2C1c1ccccc1 (stereo not drawn) | inconclusive: 17.8 µM [inhibitor, partial curve] | – |
| COc1ccc(NC2=Nc3cccc4cccc2c34)cc1 | inconclusive: 12.6 µM [inhibitor, partial curve] | – |
| CCN(CC)c1ccc(N)cc1S(=O)(=O)Nc1ccccc1OC | inconclusive: 79.4 µM [inhibitor, partial curve] | – |
| COC(=O)c1sc2ccccc2c1NC(=O)c1ccc(S(=O)(=O)N2CCCC(C)C2)cc1 (stereo not drawn) | – | inactive: 10.6% |
| CC(=O)Nc1ccc2nc3c(=O)n(C)c(=O)n(C)c3nc2c1 | active: 10 µM | – |
| CCC(/C=C1\Sc2ccc(OC)cc2N1CCO)=C\c1sc2ccc(OC)cc2[n+]1CCO | active: 50.1 µM | – |
| COc1ccccc1NC(=O)CN1CCCCC1 | inconclusive: 89.1 µM [inhibitor, single point] | – |
| CC1=NN(c2ccc(Cl)cc2)C(=O)C1C(c1ccccc1O)c1c(C)[nH]n(-c2ccc(Cl)cc2)c1=O (stereo not drawn) | inconclusive: 39.8 µM [inhibitor, single point] | – |
| COc1ccc2cc(CNCCOCCOCCNCc3ccc4cc(OC)ccc4c3)ccc2c1 | inconclusive: 14.1 µM [inhibitor, full curve, poor fit] | – |
| N#Cc1c(NC(=O)c2ccc(Br)o2)n(-c2ccccc2)c2nc3ccccc3nc12 | – | inactive: 3.54% |
| Cn1c(=O)c2c(nc(SCC(=O)O)n2Cc2cc3c(cc2Cl)OCO3)n(C)c1=O | – | inactive: -17.3% |
| COc1cc(/C=C/C(=O)c2ccc(O)cc2)ccc1OCC#N | inconclusive: 79.4 µM [inhibitor, partial curve] | – |
| COc1ccc(-n2c(CCc3ccccc3)nnc2SCC(=O)c2ccc(Cl)cc2)cc1 | – | inactive: -4.19% |
| Cc1cc(C)c2c(c1)OC(=O)CC2c1ccccc1C (stereo not drawn) | – | inactive: -6.27% |
| CCOc1ccc(C(=O)Nc2nnc(SCC(=O)NCC3CCCO3)s2)cc1OCC (stereo not drawn) | inconclusive: 89.1 µM [inhibitor, single point] | – |
| Cc1ccc(Nc2nc(N3CCOCC3)nc(N3CCOCC3)n2)cc1 | – | inactive: -2.44% |
| Cc1ccc2c(c1C)NC(C(=O)O)C1CC=CC21 (stereo not drawn) | active: 39.8 µM | – |
| O=C(O)Cc1c[nH]c2ccccc12 | – | inactive: -9.21% |
| Oc1ccc(-c2nc(-c3ccc(O)c(O)c3)cs2)cc1 | inconclusive: 16.8 µM [inhibitor, partial curve] | – |
| COc1cc(/C=C(/C#N)c2nc3ccccc3[nH]2)ccc1Oc1ncccc1[N+](=O)[O-] | inconclusive: 56.2 µM [inhibitor, partial curve] | – |
| Nc1ccc(-c2c3ccc(=O)cc-3oc3cc(O)ccc23)cc1C(=O)O | inconclusive: 50.1 µM [inhibitor, partial curve] | – |
| CCC(=O)OC1(C)C(=O)C=C2C=C(c3ccc(C#N)cc3)OC=C2C1=O (stereo not drawn) | inconclusive: 50.1 µM [inhibitor, partial curve] | – |
| Cc1oc2c(c1C(=O)c1ccccc1)C(=O)C(=O)c1ccccc1-2 | inconclusive: 56.2 µM [inhibitor, partial curve] | – |

In another format: entries from further up.
Structure (SMILES),Potency,"activity change, negative = inhibition"
COc1ccccc1NC(=O)CN1CCCCC1,"inconclusive: 89.1 µM [inhibitor, single point]",–
CC1=NN(c2ccc(Cl)cc2)C(=O)C1C(c1ccccc1O)c1c(C)[nH]n(-c2ccc(Cl)cc2)c1=O (stereo not drawn),"inconclusive: 39.8 µM [inhibitor, single point]",–
Cc1ccc(Nc2nc(N3CCOCC3)nc(N3CCOCC3)n2)cc1,–,inactive: -2.44%
COc1cc(/C=C(/C#N)c2nc3ccccc3[nH]2)ccc1Oc1ncccc1[N+](=O)[O-],"inconclusive: 56.2 µM [inhibitor, partial curve]",–

Later entries.

| Structure (SMILES) | Potency | activity change, negative = inhibition |
| --- | --- | --- |
| CC1SC(=S)N(c2ccc(N(C)C)cc2)C1=O (stereo not drawn) | – | inactive: 8.6% |
| CN(C(=O)COC(=O)/C=C/c1ccc(F)cc1)c1c(N)n(Cc2ccccc2)c(=O)[nH]c1=O | – | inactive: 0.658% |
| CN1C2CCC1/C(=C\c1ccc(F)cc1)C(=O)/C2=C/c1ccc(F)cc1 | – | inactive: 0.961% |
| COc1ccc(C)cc1Nc1nc(N)c2cc(OC)c(OC)cc2n1 | inconclusive: 31.6 µM [inhibitor, single point] | – |
| CCN1CCN(c2cc(C)c3cc(NC(=O)c4ccc(OC)c(OC)c4)ccc3n2)CC1 | – | inactive: -30.1% |
| CCc1cc2c(SCc3nc4sc(C(C)=O)c(C)c4c(=O)[nH]3)ncnc2s1 | inconclusive: 79.4 µM [inhibitor, partial curve] | – |
| CC(C)CC(=O)Nc1ccc(C(=O)Cn2nc(C(=O)O)c3ccccc3c2=O)cc1 | – | inactive: -7.01% |
| Cc1cc(C(=O)CSc2nc3ccc(Cl)cc3[nH]2)c(C)n1Cc1ccco1 | – | inactive: -13.9% |
| Cc1cc(C(=O)NC2CCCc3c2cnn3-c2ccc(C(C)(C)C)cc2)nn1C (stereo not drawn) | inconclusive: 50.1 µM [inhibitor, partial curve] | – |
| O=C(O)C1=CCC=CC1C(=O)O (stereo not drawn) | inconclusive: 56.2 µM [inhibitor, partial curve] | – |
| Cc1cc([N+](=O)[O-])c2[nH]c(C(=O)N/N=C/c3ccccc3C(=O)O)c(-c3ccccc3)c2c1 | inconclusive: 50.1 µM [inhibitor, partial curve] | – |
| [O-][n+]1c2c(nn1-c1ccccc1)/C(=N/O)CCC2 | – | inactive: -2.05% |
| Cc1cccc(NC(=O)c2nc(S(=O)(=O)Cc3ccccc3)ncc2Cl)c1 | inconclusive: 17.8 µM [inhibitor, full curve, poor fit] | – |
| O=C(Nc1ccc(C2=NCCN2)cc1)c1ccc(C(=O)Nc2ccc(C3=NCCN3)cc2)c([N+](=O)[O-])c1 | inconclusive: 50.1 µM [inhibitor, partial curve] | – |
| COc1ccccc1-n1ccnc1SCC(=O)NCc1ccco1 | – | inactive: -6.72% |
| O=C(N/N=C1/C(=O)c2cccc3cccc1c23)c1ccc(Cl)cc1 | active: 15.8 µM | – |
| O=C(N/N=C/c1cccnc1)/C(=C\c1cccs1)NC(=O)c1ccccc1 | – | inactive: -13.4% |
| O=C(CCl)N(Cc1cc(=O)[nH]c2ccccc12)c1ccccc1 | – | inactive: -3.91% |
| Cc1csc(NC(=O)CSc2nncn2C)n1 | – | inactive: -8.34% |
| COc1cc2nc(N3CCNCC3)nc(N)c2cc1OC | inconclusive: 56.2 µM [inhibitor, partial curve] | – |
| O=c1c(/C=C(\O)c2ccccc2)nc2ccccc2n1-c1ccccc1 | active: 56.2 µM | – |
| CCOC(=O)c1cc(C)sc1NC(=O)CN1CCN(C(=O)c2ccco2)CC1 | inconclusive: 79.4 µM [inhibitor, single point] | – |
| CCN(CC(=O)Nc1cccc(OC)c1)C(=O)c1ccc(C)s1 | – | inactive: 1.8% |
| Cc1ccccc1CC(=O)Nc1cccnc1 | inconclusive: 79.4 µM [inhibitor, single point] | – |
| CCC(c1ccc(O)c(O)c1)C(CC)c1ccc(O)c(O)c1 (stereo not drawn) | – | inconclusive: -64.4% [inhibitor] |

| Structure (SMILES) | Potency | activity change, negative = inhibition |
| --- | --- | --- |
| c1ccc(C(=NNc2nc3ccccc3s2)c2ccccn2)cc1 | inconclusive: 25.1 µM [inhibitor, single point] | – |
| O=C(O)c1cccc(Cn2c(Cl)c(/C=N/NC(=O)c3cc4ccccc4cc3O)sc2=O)c1 | active: 39.8 µM | – |
| COc1cccc(CN2CCC(C(=O)N3CCN(Cc4ccc5c(c4)OCO5)CC3)CC2)c1 | inconclusive: 70.8 µM [inhibitor, single point] | – |
| Cc1cc(C)c2sc(N(CCN(C)C)C(=O)CCS(=O)(=O)c3ccccc3)nc2c1 | inconclusive: 39.8 µM [inhibitor, single point] | – |
| O=S(=O)(c1ccccc1)N1CCN(S(=O)(=O)c2ccccc2)c2ccccc21 | – | inactive: -11.9% |
| CCc1c(-c2cccc(OC)c2)ncn1Cc1cccc(-c2ccccc2)c1 | – | inactive: -2.28% |
| CC(NC1=CC(=O)c2cccnc2C1=O)C(O)c1ccccc1 (stereo not drawn) | inconclusive: 20 µM [inhibitor, single point] | – |
| CC(Sc1ccccn1)C(=O)Nc1ccc2c(c1)OCCO2 (stereo not drawn) | inconclusive: 22.4 µM [inhibitor, single point] | – |
| CC(/C=C/c1ccco1)=N/NC(=O)Cc1cccs1 | inconclusive: 16.8 µM [inhibitor, partial curve] | – |
| O=[N+]([O-])c1ccc(Nc2ccc(F)cc2)nc1 | inconclusive: 28.2 µM [inhibitor, single point] | – |
| COc1cc(/C=C2\C(=O)N(c3cccc(C(=O)O)c3)N=C2C)ccc1OCc1ccccc1 | active: 2.67 µM | – |
| Oc1ccc(/C=N/Nc2nn3cnnc3c3ccccc23)cc1 | inconclusive: 39.8 µM [inhibitor, partial curve] | – |
| Cc1ccc(NC(=O)C(NC2CCCc3ccccc32)c2ccccc2)c([N+](=O)[O-])c1 (stereo not drawn) | inconclusive: 17.8 µM [inhibitor, full curve] | – |
| Cc1csc2c(N3CCN(C(=O)Nc4ccccc4)CC3)ncnc12 | inconclusive: 7.08 µM [inhibitor, full curve, poor fit] | – |
| Cc1cc(Cl)c(C)c(S(=O)(=O)N2CCN(C(=O)C3CCCO3)CC2)c1Cl (stereo not drawn) | – | inactive: -27.5% |
| C=CCn1c(SCc2ccc3c(c2)OCO3)nc2scc(-c3ccco3)c2c1=O | inconclusive: 50.1 µM [inhibitor, partial curve] | – |
| CSc1ccc(C(=O)C2CCCN(C(=O)c3nonc3C)C2)cc1 (stereo not drawn) | inconclusive: 89.1 µM [inhibitor, single point] | – |
| COc1ccc(C(=O)/C=C2\Sc3ccccc3N2C)cc1 | inconclusive: 35.5 µM [inhibitor, single point] | – |
| O=c1oc2ccccc2c2oc3cc(O)c(O)cc3c12 | active: 44.7 µM | – |
| Cc1cc(=O)n2[nH]c(-c3sccc3-n3c(C)ccc3C)cc2n1 | inconclusive: 56.2 µM [inhibitor, partial curve] | – |
| O=C1C2C3C=CC(CC3)C2C(=O)N1c1nccs1 (stereo not drawn) | active: 39.8 µM | – |
| CN(C)CC1CCC/C(=C\c2ccc(OC(=O)/C=C/c3ccc(Cl)c(Cl)c3)cc2)C1=O (stereo not drawn) | – | inactive: -26.4% |
| Oc1ccc2ccccc2c1C=Nc1ccc(N2CCOCC2)cc1 | inconclusive: 56.2 µM [inhibitor, partial curve] | – |
